Test results: the supplement of paper PMC7666118
Some of the results follow.

Sequences of proteins named here, by UniProt entry; tags and fusion partners are left off. A change or cut given only in a name is not applied to a line headed by its entry.
UniProt Q8IWB7: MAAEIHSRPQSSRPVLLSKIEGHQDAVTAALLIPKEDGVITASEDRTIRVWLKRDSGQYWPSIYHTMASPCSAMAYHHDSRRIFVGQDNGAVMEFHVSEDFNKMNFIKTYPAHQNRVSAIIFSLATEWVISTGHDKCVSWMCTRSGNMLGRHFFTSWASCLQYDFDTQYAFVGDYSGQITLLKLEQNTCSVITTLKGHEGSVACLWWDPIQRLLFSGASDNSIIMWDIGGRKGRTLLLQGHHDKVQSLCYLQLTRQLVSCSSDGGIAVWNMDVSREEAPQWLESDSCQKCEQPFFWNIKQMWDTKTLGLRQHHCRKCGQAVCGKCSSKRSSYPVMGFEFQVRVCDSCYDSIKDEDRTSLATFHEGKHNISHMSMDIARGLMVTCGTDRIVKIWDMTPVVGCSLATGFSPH
UniProt Q6ZS81: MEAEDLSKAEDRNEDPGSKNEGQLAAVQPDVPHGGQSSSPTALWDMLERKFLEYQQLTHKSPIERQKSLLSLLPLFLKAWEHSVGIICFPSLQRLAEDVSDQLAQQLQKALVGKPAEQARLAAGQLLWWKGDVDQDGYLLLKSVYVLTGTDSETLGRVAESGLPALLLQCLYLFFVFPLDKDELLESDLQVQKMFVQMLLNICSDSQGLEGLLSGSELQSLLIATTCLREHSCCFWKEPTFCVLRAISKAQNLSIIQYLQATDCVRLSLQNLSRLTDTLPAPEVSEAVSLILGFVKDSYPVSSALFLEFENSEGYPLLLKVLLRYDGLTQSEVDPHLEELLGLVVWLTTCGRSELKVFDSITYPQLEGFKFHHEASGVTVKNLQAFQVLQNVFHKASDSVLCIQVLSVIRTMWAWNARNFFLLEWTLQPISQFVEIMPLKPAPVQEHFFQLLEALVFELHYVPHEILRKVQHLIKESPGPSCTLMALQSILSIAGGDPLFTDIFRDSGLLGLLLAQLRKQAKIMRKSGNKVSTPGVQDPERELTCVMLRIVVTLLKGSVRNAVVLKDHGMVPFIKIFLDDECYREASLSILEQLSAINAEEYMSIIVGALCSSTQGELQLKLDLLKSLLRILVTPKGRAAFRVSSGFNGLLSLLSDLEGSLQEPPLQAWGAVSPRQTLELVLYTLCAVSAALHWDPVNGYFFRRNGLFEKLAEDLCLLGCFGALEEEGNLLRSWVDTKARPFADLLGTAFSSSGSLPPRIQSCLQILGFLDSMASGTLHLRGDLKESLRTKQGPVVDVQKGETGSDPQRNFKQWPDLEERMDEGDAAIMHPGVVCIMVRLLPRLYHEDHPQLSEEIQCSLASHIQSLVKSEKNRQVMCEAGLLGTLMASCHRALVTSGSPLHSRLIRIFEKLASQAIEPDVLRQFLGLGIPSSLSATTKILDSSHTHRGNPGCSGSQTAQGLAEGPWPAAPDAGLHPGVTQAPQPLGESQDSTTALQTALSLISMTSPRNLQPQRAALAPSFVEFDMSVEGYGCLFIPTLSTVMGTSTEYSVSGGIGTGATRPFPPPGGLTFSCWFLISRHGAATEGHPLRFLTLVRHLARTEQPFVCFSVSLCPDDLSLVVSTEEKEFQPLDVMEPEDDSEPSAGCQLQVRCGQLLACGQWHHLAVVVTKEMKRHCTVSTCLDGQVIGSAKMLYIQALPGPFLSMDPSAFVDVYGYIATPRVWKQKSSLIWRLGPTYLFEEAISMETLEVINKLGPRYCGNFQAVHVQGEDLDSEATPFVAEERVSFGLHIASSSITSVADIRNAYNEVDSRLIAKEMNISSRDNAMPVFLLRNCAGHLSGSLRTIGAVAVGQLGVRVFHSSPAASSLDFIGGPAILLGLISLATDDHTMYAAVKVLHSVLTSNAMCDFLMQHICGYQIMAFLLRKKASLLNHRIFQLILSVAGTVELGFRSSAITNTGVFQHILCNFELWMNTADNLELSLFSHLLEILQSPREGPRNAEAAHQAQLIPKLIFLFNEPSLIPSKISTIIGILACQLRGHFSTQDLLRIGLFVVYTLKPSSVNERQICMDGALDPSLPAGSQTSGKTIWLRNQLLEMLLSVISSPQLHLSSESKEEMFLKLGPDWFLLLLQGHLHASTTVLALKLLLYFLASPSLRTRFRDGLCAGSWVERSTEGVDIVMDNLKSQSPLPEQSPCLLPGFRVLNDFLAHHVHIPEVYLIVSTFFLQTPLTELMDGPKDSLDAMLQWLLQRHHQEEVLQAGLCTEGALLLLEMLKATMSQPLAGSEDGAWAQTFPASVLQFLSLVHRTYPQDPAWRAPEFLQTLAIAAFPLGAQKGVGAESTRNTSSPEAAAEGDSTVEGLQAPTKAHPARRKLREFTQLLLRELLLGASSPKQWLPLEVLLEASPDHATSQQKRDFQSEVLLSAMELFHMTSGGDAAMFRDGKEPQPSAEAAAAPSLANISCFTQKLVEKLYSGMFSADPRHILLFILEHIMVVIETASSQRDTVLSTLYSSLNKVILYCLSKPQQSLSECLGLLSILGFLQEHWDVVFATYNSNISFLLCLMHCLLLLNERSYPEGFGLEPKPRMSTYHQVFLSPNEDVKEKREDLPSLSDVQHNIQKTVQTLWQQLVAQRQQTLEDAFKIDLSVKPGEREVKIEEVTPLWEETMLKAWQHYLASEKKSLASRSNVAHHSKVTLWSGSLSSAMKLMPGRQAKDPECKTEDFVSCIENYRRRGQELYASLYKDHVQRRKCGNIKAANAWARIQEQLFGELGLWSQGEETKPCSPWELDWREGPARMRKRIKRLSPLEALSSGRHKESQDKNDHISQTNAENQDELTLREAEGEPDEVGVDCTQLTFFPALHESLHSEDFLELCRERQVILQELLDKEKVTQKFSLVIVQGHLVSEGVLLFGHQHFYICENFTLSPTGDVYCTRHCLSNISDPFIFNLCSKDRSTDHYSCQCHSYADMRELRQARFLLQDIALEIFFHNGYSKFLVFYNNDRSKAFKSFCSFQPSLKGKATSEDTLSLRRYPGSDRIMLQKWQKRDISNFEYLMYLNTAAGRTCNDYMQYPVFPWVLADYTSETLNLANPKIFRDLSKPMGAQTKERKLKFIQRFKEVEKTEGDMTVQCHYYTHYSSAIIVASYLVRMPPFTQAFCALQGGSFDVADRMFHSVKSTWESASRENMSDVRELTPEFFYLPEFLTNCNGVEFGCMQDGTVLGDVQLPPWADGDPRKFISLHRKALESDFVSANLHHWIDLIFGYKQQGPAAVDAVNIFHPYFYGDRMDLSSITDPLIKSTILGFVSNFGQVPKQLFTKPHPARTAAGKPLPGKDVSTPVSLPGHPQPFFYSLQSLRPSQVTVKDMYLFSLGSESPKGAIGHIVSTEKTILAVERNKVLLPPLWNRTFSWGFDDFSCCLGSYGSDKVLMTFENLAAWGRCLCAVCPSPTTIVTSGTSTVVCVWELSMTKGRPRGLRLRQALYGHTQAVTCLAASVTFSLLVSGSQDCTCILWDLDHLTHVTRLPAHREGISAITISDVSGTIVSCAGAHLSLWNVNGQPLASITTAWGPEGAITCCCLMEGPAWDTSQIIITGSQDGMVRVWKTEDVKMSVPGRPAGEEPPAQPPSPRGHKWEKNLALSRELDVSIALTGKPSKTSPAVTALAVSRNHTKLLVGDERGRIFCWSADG
UniProt O14933: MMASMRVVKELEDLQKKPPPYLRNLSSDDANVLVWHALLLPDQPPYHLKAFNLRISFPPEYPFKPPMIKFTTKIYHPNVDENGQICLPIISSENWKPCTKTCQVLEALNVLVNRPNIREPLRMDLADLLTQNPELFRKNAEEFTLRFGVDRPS
UniProt P41226: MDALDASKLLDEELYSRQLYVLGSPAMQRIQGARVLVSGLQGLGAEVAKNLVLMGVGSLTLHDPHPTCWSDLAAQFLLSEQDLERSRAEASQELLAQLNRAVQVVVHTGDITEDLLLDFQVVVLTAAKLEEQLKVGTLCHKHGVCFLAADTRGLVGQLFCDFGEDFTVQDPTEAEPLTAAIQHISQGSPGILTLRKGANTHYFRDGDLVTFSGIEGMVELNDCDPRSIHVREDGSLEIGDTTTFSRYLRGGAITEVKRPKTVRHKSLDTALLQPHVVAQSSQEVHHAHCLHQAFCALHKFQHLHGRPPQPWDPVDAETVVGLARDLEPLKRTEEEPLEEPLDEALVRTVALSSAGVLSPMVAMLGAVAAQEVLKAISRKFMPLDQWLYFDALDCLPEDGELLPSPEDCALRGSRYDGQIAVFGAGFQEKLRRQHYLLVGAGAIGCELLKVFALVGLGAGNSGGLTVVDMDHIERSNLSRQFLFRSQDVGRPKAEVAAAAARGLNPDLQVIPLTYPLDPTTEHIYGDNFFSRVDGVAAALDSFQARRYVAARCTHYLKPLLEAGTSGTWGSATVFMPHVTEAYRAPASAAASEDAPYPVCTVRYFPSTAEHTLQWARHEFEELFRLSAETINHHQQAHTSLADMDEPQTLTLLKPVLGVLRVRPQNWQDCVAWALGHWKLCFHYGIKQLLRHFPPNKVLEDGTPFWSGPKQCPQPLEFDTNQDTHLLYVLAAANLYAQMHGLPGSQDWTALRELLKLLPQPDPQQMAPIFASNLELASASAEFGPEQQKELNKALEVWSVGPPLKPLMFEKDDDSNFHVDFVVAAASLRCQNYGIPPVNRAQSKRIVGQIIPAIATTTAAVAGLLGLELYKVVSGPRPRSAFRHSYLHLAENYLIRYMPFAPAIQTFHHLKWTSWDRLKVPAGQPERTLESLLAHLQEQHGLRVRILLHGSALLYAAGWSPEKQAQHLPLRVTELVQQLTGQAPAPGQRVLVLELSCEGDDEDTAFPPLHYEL
UniProt Q969T4: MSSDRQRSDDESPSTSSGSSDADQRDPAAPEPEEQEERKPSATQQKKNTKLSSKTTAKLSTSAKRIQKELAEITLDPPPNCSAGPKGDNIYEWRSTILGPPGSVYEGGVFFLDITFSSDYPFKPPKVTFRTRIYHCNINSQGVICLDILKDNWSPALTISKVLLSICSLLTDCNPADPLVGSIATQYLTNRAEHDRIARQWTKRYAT
UniProt Q9UK41: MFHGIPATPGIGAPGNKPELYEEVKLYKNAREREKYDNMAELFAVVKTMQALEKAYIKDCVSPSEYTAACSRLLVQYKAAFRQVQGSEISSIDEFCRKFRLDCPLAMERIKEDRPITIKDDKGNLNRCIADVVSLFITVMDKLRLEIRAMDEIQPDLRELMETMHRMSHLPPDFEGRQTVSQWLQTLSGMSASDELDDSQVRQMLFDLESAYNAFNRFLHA
UniProt P63279, whole entry: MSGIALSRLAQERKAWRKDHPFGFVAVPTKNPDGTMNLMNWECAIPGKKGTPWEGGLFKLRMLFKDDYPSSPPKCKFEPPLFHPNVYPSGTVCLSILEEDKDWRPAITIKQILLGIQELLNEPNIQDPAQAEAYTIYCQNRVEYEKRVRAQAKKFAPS
UniProt Q92995: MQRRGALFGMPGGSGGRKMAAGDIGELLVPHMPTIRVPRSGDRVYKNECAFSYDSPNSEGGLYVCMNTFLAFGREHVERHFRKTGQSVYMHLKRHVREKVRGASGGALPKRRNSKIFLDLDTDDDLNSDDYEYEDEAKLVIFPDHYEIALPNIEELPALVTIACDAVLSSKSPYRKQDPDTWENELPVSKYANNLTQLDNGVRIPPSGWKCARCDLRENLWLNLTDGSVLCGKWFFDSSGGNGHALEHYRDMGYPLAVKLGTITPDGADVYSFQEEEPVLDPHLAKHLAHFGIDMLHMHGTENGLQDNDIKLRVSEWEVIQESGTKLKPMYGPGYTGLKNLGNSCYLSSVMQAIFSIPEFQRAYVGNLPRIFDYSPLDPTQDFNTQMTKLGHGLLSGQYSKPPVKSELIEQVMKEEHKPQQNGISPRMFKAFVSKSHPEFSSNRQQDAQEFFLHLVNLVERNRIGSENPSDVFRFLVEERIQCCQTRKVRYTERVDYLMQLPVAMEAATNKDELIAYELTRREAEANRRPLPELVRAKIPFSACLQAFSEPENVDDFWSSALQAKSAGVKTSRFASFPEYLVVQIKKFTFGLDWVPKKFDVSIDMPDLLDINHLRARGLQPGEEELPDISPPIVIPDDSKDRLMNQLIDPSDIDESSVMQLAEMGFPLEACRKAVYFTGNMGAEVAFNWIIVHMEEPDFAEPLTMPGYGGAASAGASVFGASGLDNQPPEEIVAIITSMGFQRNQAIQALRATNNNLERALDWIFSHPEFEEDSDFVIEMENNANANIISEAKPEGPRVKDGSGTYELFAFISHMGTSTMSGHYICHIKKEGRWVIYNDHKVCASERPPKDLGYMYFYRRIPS
UniProt Q15836, whole entry: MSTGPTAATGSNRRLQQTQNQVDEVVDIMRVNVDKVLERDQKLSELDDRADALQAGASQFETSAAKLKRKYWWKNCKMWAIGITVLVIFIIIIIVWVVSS
UniProt Q9BZL1: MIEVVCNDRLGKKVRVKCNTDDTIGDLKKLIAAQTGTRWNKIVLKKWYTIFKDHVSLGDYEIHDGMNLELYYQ
UniProt Q969M7: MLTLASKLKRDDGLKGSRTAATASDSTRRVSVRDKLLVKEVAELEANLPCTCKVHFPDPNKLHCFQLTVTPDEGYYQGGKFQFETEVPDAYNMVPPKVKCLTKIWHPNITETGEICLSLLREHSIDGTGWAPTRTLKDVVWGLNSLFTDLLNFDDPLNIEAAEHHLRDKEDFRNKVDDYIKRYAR

Compound: COc1ccc(Cn2ccc3cc(C)c(C(=O)NO)cc32)cc1
Assay: dose-dependent thermal stabilisation call (2D-TPP, DLPTP, 10% FDR) (binary (1 = stabilised)); higher = stabilised by the compound
Details: system: HL-60 intact cells; concentration range 0.04-10 µM
Experimental: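 2D thermal proteome profiling in intact HL-60 cells treated with BRD-3811 (0, 0.04, 0.29, 2, 10 uM) for 90 min at 37 C, then heated 3 min at one of 12 temperatures (42-63.9 C). Soluble protein was quantified by TMT10 MS. The value is the DLPTP call of the paper: dose-dependent thermal stabilisation over all temperatures at 10% FDR (F-test of a dose-response against a flat model); one experiment, one call per tested protein.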

Row | Target | dose-dependent thermal stabilisation call
1 | TXNL4A (UniProt P83876) | inactive: 0
2 | VAMP4 (UniProt O75379) | inactive: 0
3 | VAV3 (UniProt Q9UKW4) | inactive: 0
4 | TYK2 (UniProt P29597) | inactive: 0
5 | WDFY1 (UniProt Q8IWB7) | inactive: 0
6 | UBE2J1 (UniProt Q9Y385) | inactive: 0
7 | UBLCP1 (UniProt Q8WVY7) | inactive: 0
8 | WDFY4 (UniProt Q6ZS81) | inactive: 0
9 | TWF1 (UniProt Q12792) | inactive: 0
10 | UBE2L6 (UniProt O14933) | inactive: 0
11 | UBA7 (UniProt P41226) | inactive: 0
12 | TTF2 (UniProt Q9UNY4) | inactive: 0
13 | UQCRC2 (UniProt P22695) | inactive: 0
14 | UBE2E3 (UniProt Q969T4) | inactive: 0
15 | VPS26B (UniProt Q4G0F5) | inactive: 0
16 | VCP (UniProt P55072) | inactive: 0
17 | UBQLN2 (UniProt Q9UHD9) | inactive: 0
18 | UPF1 (UniProt Q92900) | inactive: 0
19 | UBE2A (UniProt P49459) | inactive: 0
20 | VPS28 (UniProt Q9UK41) | inactive: 0

Row | Target | dose-dependent thermal stabilisation call
21 | UNG (UniProt P13051) | inactive: 0
22 | USP22 (UniProt Q9UPT9) | inactive: 0
23 | UBE2G1 (UniProt P62253) | inactive: 0
24 | UBE2I (UniProt P63279) | inactive: 0
25 | UBE2L3 (UniProt P68036) | inactive: 0
26 | USP13 (UniProt Q92995) | inactive: 0
27 | VAMP3 (UniProt Q15836) | inactive: 0
28 | TUBGCP2 (UniProt Q9BSJ2) | inactive: 0
29 | VPS11 (UniProt Q9H270) | inactive: 0
30 | UBL5 (UniProt Q9BZL1) | inactive: 0
31 | VPS18 (UniProt Q9P253) | inactive: 0
32 | VGLL4 (UniProt Q14135) | inactive: 0
33 | TXNIP (UniProt Q9H3M7) | inactive: 0
34 | WASH1 (UniProt A8K0Z3) | inactive: 0
35 | UBE2F (UniProt Q969M7) | inactive: 0
36 | UBA6 | inactive: 0
37 | USP16 (UniProt Q9Y5T5) | inactive: 0
38 | VEZF1 (UniProt Q14119) | inactive: 0
39 | VPS39 (UniProt Q96JC1) | inactive: 0
40 | WDR11 (UniProt Q9BZH6) | inactive: 0

Numbers 26 through 33, quoted:
Row | Target | dose-dependent thermal stabilisation call
26 | USP13 (UniProt Q92995) | inactive: 0
27 | VAMP3 (UniProt Q15836) | inactive: 0
28 | TUBGCP2 (UniProt Q9BSJ2) | inactive: 0
29 | VPS11 (UniProt Q9H270) | inactive: 0
30 | UBL5 (UniProt Q9BZL1) | inactive: 0
31 | VPS18 (UniProt Q9P253) | inactive: 0
32 | VGLL4 (UniProt Q14135) | inactive: 0
33 | TXNIP (UniProt Q9H3M7) | inactive: 0
